For one compound, IC50 results are on record in patent US10196386B2, “Compounds having muscarinic receptor antagonist and beta2 adrenergic receptor agonist activity” (priority 2016, dated 2019).

Amino acid sequences for entries named in this document (tags omitted).
UniProt P20309, whole entry: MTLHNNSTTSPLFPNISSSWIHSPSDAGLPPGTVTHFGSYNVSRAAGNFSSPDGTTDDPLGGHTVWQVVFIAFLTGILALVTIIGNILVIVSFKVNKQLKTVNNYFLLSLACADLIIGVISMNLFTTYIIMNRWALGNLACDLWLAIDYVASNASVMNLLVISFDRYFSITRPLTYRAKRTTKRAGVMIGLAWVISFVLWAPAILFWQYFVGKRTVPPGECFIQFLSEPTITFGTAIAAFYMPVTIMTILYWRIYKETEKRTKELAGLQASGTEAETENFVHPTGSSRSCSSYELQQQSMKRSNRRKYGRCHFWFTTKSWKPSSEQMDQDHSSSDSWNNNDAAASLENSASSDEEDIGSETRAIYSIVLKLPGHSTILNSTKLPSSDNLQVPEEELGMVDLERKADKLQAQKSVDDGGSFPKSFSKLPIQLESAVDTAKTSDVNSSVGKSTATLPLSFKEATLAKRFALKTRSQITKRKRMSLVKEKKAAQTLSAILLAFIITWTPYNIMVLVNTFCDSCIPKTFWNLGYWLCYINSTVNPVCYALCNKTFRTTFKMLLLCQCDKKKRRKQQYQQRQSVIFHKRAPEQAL
UniProt P07550, whole entry: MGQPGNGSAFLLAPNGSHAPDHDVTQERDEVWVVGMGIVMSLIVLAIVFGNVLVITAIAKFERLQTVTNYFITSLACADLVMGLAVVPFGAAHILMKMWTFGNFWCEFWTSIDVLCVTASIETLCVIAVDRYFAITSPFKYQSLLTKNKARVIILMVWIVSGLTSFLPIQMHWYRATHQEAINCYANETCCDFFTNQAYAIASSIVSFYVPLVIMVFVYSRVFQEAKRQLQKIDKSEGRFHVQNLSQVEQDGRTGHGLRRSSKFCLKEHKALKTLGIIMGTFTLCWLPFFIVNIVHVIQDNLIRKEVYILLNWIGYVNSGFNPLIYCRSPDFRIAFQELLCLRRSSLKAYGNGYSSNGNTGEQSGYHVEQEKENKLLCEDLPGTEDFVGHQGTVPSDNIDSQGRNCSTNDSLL

The target in one assay is Human M3 receptor (Homo sapiens, UniProt P20309). The experiment in a line: M3 receptor radioligand binding assay. Particulars: read-out: M3 Range; binding affinity class, human M3 receptor membranes, [N-methyl-3H] Scopolamine Methyl Chloride; tested form: TFA.
The target in a further assay is Human β2 adrenoceptor (Homo sapiens, UniProt P07550). The experiment in a line: β2 adrenoceptor radioligand binding assay. Particulars: read-out: B2 Range 8.5-9.5; binding affinity class, human β2 adrenoceptor membranes, 125-I Cyanopindolol; tested form: TFA. Here is the method: β2 Adrenoceptor Radioligand Binding Assay
Human β2 adrenoceptor membranes (7.5 ug/well) from Perkin Elmer were incubated with 0.3 nM 125-I Cyanopindolol with or without test compounds, or a saturating concentration of s-propranolol (2 μM) for the determination of non-specific binding. The assay was carried out in 96-well polypropylene plates in a volume of 200 ul. The assay buffer used was 25 mM HEPES, 0.5% BSA (w/v), 1 mM EDTA, 0.02% ascorbic acid (v/v), (pH 7.4). The final assay concentration of DMSO was 0.5% (v/v). The plates were sealed and incubated for 1 h at room temperature on an orbital shaker (slow speed). Membranes were harvested onto 96-well unifilter GF/C filter plates pre-treated with 0.5% polyethyleneimine (v/v), using a filter manifold, washed six times with 200 ul of wash buffer containing 10 mM HEPES and 500 mM NaCl. The plates were dried before addition of 50 μl of microscint-0, sealed then read in a Trilux Microbeta scintillation counter. IC50 values are determined from competition curves using a non-linear curve fitting program. Ki values were calculated from IC50 values by the Cheng and Prusoff equation.

SMILES strings stand for the structures. The structures given here were assigned with low confidence; some may be wrong.

Regarding `O=C(N[C@H]1C[C@H](NC(=O)c2cncc(-c3cccc([C@](O)(C(=O)OCC4CCN(Cc5ccccc5)CC4)c4ccccc4)c3)n2)C1)c1ccc(CNC[C@H](O)c2ccc(O)c3[nH]c(=O)ccc23)cc1`, the IC50 is more than 3 nM on Human M3 receptor and 0.3 to 3 nM at Human β2 adrenoceptor.
